No constants are given. Whether binding was seen depends on the method and setting. In cells and extracts the contact can be indirect. A result given as binding can be weak or reduced; the word gives no strength.
Biological target: AMP-activated protein kinase (AMPK) (mouse (endogenous in liver and primary hepatocytes))
Test: co-IP; endogenous IP: WT and PTGLKO liver and hepatocyte lysates incubated with AMPKα primary antibody overnight at 4°C, then magnetic protein A/G beads 2 hours at room temperature; washed 3 times; blots

- binding: binds
B1: LKB1 (enzyme, UniProt Q9WTK7 1-436)
chain: MDVADPEPLGLFSEGELMSVGMDTFIHRIDSTEVIYQPRRKRAKLIGKYLMGDLLGEGSYGKVKEVLDSETLCRRAVKILKKKKLRRIPNGEANVKKEIQLLRRLRHRNVIQLVDVLYNEEKQKMYMVMEYCVCGMQEMLDSVPEKRFPVCQAHGYFRQLIDGLEYLHSQGIVHKDIKPGNLLLTTNGTLKISDLGVAEALHPFAVDDTCRTSQGSPAFQPPEIANGLDTFSGFKVDIWSAGVTLYNITTGLYPFEGDNIYKLFENIGRGDFTIPCDCGPPLSDLLRGMLEYEPAKRFSIRQIRQHSWFRKKHPLAEALVPIPPSPDTKDRWRSMTVVPYLEDLHGRAEEEEEEDLFDIEDGIIYTQDFTVPGQVLEEEVGQNGQSHSLPKAVCVNGTEPQLSSKVKPEGRPGTANPARKVCSSNKIRRLSACKQQ

— paper PMC12126231
